# Some of these results come from one statement about several compounds together.
# Test system: mouse osteoblastic cell line MC3T3-E1
# Test: Alkaline phosphatase (ALP) activity measuring test in osteoblastic cells
# Assay type: cell-based
# Settings: concentration of 300 nM, cultured 3 days, control group set to 100%
row,Structure (SMILES),ALP activity based on the control group
1,"COc1cccc(-c2nnc3ccc(N(C)C4CCCC4)nn23)c1 [Production Example 2, N-cyclopentyl-3-(3-methoxyphenyl)-N-methyl-1,2,4-triazoro[4,3-b]pyridazin-6-ylamine]",≥ 300%
2,"COc1cccc(-c2nnc3ccc(N4CCCCCCC4)nn23)n1 [Production Example 6, 6-azocan-1-yl-3-(6-methoxypyridin-2-yl)-1,2,4-triazolo[4,3-b]pyridazine]",≥ 300%
3,"Brc1cccc(-c2nnc3ccc(N4CCCCCC4)nn23)n1 [Production Example 10, 6-azepan-1-yl-3-(6-bromopyridin-2-yl)-1,2,4-triazolo[4,3-b]pyridazine]",≥ 300%
4,COc1cccc(-c2nnc3ccc(N4CCC(F)CC4)nn23)n1 [compound 93],≥ 300%

# — patent US20060173009A1, “Agent inducing increase in bone mass” (priority 2003, published 2006)
